Test results as given in paper PMC3888430.
These are yes or no findings as the source states them, for the method shown. Binding seen in cells or lysates may run through a third protein. Some binding calls cover weakened binding; strength is not graded here.

Protein sequences, listed by entry. Tags and fused reporters are not part of them.
UniProt Q07832: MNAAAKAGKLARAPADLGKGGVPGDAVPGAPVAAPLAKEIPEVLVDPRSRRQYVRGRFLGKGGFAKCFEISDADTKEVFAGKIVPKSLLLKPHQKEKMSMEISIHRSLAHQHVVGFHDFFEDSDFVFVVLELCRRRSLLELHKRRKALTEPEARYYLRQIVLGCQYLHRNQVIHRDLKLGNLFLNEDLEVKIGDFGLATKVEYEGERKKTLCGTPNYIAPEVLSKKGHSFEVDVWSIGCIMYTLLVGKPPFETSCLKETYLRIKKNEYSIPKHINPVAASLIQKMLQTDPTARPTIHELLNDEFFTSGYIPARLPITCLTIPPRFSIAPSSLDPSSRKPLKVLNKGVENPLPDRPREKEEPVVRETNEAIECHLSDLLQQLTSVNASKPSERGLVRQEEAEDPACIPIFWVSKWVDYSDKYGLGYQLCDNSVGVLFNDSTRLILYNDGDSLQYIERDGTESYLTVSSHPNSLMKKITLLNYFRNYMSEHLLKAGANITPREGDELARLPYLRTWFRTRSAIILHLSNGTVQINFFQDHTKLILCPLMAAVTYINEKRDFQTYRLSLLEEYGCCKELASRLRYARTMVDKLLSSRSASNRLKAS

Target: Polo-like kinase 1 (PLK1), endogenous in 3T3-L1 fibroblasts (mouse (endogenous in 3T3-L1)) (UniProt Q07832)
Test: co-IP; 3T3-L1 fibroblast lysate in buffer A (20 mM HEPES pH 7.4, 0.25 M sucrose, 1 mM EDTA) with 1% Nonidet P-40; 3 h at 4°C with rabbit α-sorcin or rabbit α-PLK1, protein G-Sepharose; western blot

B1: sorcin, endogenous in 3T3-L1 fibroblasts (protein, UniProt Q6P069 1-198)
chain: MAYPGHPGAGGGYYPGGYGGAPGGPAFPGQTQDPLYGYFAAVAGQDGQIDADELQRCLTQSGIAGGYKPFNLETCRLMVSMLDRDMSGTMGFNEFKELWAVLNGWRQHFISFDSDRSGTVDPQELQKALTTMGFRLSPQTVNSVAKRYSTSGKITFDDYIACCVKLRALTDSFRRRDSGQQGVVNFSYDDFIQCVMTV
binding: binds
